{"source": "patent US20250186454A1", "about": "“METHODS FOR TREATING ABERRANT BEHAVIOR AND MOTOR ACTIVITY” (LAPKO INC, dba AFECTA PHARMACEUTICALS, priority 2023, published 2025)", "test": "pharmacokinetic study of equivalent doses by gastric absorption compared to sublingual absorption", "format": "in vivo", "details": "pre-gastric (sublingual) delivery compared to gastric delivery", "method": "A study of equivalent doses of molindone administered by gastric absorption compared to sublingual absorption. […] Molindone is primarily, if not exclusively, metabolized by the liver (hepatic metabolism). The first metabolite of molindone obtained by liver metabolism is 3-ethyl-2-(hydroxymethyl)-5-[(morpholin-4-yl)methyl]-1,5,6,7tetrahydro-4H-indol-4-one. The level of this metabolite was also measured at the Cmax of the sublingual and gastric dosing regimens.", "note": "The name of at least one read-out is uncertain."}
{"smiles": "CCc1c(C)[nH]c2c1C(=O)C(CN1CCOCC1)CC2", "note": "(stereo not shown) [molindone, 3-ethyl-2-methyl-5-(morpholin-4-ylmethyl)-1,5,6,7-tetrahydroindol-4-one]", "values": [{"measurement": "relative bioavailability", "value": "better relative bioavailability"}]}
